From PMC5737863, “Entirely enzymatic nanofabrication of DNA–protein conjugates” come the findings set out here.

Negatives hold for the conditions tested. At least one verdict rests on a figure or table, not on a statement of the authors. Protein sequences can lack the tags named with them.

This data set concerns the target T1, mVirD2 (Agrobacterium tumefaciens (from pSDM3149)) (UniProt P06668).
T1 sequence (looked up): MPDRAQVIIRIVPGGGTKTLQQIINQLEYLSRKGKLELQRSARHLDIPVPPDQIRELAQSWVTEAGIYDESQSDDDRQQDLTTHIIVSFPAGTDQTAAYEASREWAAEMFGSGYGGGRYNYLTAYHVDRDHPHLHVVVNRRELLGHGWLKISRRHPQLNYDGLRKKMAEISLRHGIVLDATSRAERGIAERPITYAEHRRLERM
Kind of data set: EMSA. The following applies: no retardation when binding site is RNA, Conjugation/EMSA: TKM buffer (50 mM Tris-HCl pH 8, 150 mM KCl, 1 mM MgCl2, 10% glycerol), 37 C, 1 h, 10% native PAGE, HER2 beads: PBS, room temperature, 15 min, recombinant protein, residues 1-204, protein details: N-terminal 6xHis. In general terms: A gel shift assay detects complexes by their altered migration in electrophoresis.

Take “GGAUGUAUGAAGUCGAUCCGUCGGCUUCAUAUAUCCUGCCAGGAGCAUACGUGCUCUUGGUA [ds full RNA]”: the binding result (ds RNA does not help) is “no binding”. On to “GGGAACACUACUAAACUUCAUAUAUCCUGCCAGCCAAUCAAAUCU [ss full RNA]”, for which the binding result is reported as “no binding”.
